This data set deals with T1, Interleukin-6 (IL-6) (UniProt P08505).
T1 sequence (looked up, limits assumed): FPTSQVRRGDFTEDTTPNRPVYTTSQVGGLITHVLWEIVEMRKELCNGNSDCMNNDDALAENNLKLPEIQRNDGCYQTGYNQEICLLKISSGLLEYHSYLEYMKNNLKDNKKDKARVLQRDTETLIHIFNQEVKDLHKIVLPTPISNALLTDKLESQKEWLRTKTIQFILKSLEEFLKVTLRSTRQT
Briefly: GFET (graphene field-effect transistor), shift of charge neutrality point. The conditions noted are these: 1, 10, 100 nM IL-6, no significant shift; pyrene tag by same one-step protocol; 0.01x PBS with 2 mM MgCl2, pH ~7.4 (or adjusted to ~3.64), 10 min exposure per concentration, temperature not stated; aptamer immobilized on graphene; single-stranded DNA.

No signal at the amounts used counts as a negative. Protein sequences can lack the tags named with them.

With “ATCAGGGCTAAAGAGTGCAGAGTTACTTAG [random sequence (scramble) aptamer, pyrene-tagged]”, the binding result was “no binding”.

The values above are taken from PMC7918451.
